Data: publication PMC5587564
These are yes or no findings as the source states them, for the method shown. Binding seen in cells or lysates may run through a third protein. Some results given as binding are weak or reduced against the parent protein; the word gives no strength.

By UniProt entry, the sequences of proteins in these tests, tags left out.
UniProt P50750: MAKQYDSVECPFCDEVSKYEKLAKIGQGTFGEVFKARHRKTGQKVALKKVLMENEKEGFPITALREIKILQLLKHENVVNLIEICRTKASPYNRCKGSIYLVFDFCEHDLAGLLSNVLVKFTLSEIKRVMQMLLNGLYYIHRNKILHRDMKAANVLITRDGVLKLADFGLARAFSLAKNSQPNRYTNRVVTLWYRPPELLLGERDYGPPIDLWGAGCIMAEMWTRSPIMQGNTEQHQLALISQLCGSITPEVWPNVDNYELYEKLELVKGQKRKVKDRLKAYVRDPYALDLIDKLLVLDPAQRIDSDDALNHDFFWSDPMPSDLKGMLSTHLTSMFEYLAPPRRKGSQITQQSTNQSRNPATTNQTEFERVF
UniProt O94992: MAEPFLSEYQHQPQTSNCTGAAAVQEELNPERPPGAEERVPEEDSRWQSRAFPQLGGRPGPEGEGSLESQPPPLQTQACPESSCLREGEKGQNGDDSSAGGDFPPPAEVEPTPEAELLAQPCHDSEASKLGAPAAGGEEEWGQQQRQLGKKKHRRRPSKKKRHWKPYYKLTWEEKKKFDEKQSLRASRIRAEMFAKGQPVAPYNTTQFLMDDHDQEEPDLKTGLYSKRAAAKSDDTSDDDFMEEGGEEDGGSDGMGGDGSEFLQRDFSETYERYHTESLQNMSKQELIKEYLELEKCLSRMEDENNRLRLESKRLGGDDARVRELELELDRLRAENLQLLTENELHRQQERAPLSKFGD

Biological target: Flag-tagged CDK9 (human) (UniProt P50750)
Experiment: co-IP; anti-Flag agarose IP (2 hr) from nuclear extracts of F1C2 cells stably expressing CDK9-Flag; cells treated with 200 μg/ml Amt-87 or DMSO for 24 hr; Western blot

| Molecule | binding |
| --- | --- |
| HEXIM1 (from UniProt O94992 1-359) | binds |
| LARP7 (protein, UniProt Q4G0J3 1-582) METESGNQEKVMEEESTEKKKEVEKKKRSRVKQVLADIAKQVDFWFGDANLHKDRFLREQIEKSRDGYVDISLLVSFNKMKKLTTDGKLIARALRSSAVVELDLEGTRIRRKKPLGERPKDEDERTVYVELLPKNVNHSWIERVFGKCGNVVYISIPHYKSTGDPKGFAFVEFETKEQAAKAIEFLNNPPEEAPRKPGIFPKTVKNKPIPALRVVEEKKKKKKKKGRMKKEDNIQAKEENMDTSNTSISKMKRSRPTSEGSDIESTEPQKQCSKKKKKRDRVEASSLPEVRTGKRKRSSSEDAESLAPRSKVKKIIQKDIIKEASEASKENRDIEISTEEEKDTGDLKDSSLLKTKRKHKKKHKERHKMGEEVIPLRVLSKSEWMDLKKEYLALQKASMASLKKTISQIKSESEMETDSGVPQNTGMKNEKTANREECRTQEKVNATGPQFVSGVIVKIISTEPLPGRKQVRDTLAAISEVLYVDLLEGDTECHARFKTPEDAQAVINAYTEINKKHCWKLEILSGDHEQRYWQKILVDRQAKLNQPREKKRGTEKLITKAEKIRLAKTQQASKHIRFSEYD | binds |
